From patent publication US20090118372A1, “Inhibitors Of Biotin Protein Ligase” (Adelaide Research & Innovation Pty Ltd., priority 2004, published 2009)
Some entries share one result that the patent states for a list of compounds.

Key:
[1] = biological target: T1, human BPL (Homo sapiens, UniProt P50747); test: In vitro biotinylation assay of human BPL (Example 9); format: biochemical; conditions: concentrations less than 50 μM
T1 construct: Vector pARA(hBPL-His6) was produced by cloning the full-length gene into Nco1/Hind111 treated pARA13; initiator Met (NcoI site) before Ala80 (N); made in house; host or cells: E. coli BL21(DE3)pLys, pET-16b vector
T1 sequence (P50747 80-726 limits assumed): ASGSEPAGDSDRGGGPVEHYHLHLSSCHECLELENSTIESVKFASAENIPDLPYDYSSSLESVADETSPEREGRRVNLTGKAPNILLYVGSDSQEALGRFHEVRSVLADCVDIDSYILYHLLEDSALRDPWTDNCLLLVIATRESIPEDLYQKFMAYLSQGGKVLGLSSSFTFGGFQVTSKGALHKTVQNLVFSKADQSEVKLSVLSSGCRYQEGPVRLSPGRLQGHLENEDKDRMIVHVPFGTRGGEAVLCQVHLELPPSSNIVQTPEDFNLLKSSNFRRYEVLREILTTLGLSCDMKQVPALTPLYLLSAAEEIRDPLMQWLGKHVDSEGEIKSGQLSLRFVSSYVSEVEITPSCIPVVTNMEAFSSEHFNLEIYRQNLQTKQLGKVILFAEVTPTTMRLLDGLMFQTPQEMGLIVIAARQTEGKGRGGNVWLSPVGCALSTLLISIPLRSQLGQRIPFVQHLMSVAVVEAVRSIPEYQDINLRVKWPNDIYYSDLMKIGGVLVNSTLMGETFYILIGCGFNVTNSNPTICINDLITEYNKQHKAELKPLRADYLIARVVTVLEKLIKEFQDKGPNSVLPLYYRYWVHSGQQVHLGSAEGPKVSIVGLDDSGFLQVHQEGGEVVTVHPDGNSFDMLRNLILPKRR
Procedure: (§1) One hundred ng of biotin domain was coated onto each well of Griener Lumitrac 600 White 96-well plates (Stennick Scientific) with >95% of the peptide binding. Coating was performed overnight at 4° C. in 100 uL of Tris Buffered saline (TBS, pH 7.5). The sample was removed and wells blocked in 150 ul of a 1% BSA solution in TBS for 1 hr at 37° C. The blocking buffer was removed and wells washed five times in TBS buffer containing 0.1% Tween-20. Into each well 85 ul of the BPL reaction mix was added. The reaction for both C. albicans and human BPL are performed in 50 mM Tris-HCl pH 8.0, 100 uM ATP, 5.5 mM MgCl2, 0.1 mg/ml BSA, 10 uM biotin, […].
Ten ul of either buffer alone or buffer containing inhibitor was added to the reaction mix and pre-equilibrated at 37° C. for 5 minutes. […] The quantitative analysis of biotinylated protein formed in the reaction and coupled onto the well surface was determined using time resolved fluorescence. […] Fifty ul of DELFIA Enhancement solution (Perkin Elmer) was added and incubated for ten minutes at room temperature before quantitation. Quantitation was performed using a FLUOstar Galaxy plate reader (BMG Labtechnologies). […]
(§2) The activity of BPL from Escherichia coli, Staphylococcus aureus, Saccharomyces cerevisiae and Homo sapiens was measured using an in vitro biotinylation assay in the presence of increasing concentrations of Compounds 2 to 5.

[2] = biological target: T2, Saccharomyces cerevisiae BPL (Saccharomyces cerevisiae, UniProt P48445); test: In vitro biotinylation assay of S. cerevisiae BPL; format: biochemical; conditions: concentrations less than 50 μM
T2 sequence (P48445 1-690): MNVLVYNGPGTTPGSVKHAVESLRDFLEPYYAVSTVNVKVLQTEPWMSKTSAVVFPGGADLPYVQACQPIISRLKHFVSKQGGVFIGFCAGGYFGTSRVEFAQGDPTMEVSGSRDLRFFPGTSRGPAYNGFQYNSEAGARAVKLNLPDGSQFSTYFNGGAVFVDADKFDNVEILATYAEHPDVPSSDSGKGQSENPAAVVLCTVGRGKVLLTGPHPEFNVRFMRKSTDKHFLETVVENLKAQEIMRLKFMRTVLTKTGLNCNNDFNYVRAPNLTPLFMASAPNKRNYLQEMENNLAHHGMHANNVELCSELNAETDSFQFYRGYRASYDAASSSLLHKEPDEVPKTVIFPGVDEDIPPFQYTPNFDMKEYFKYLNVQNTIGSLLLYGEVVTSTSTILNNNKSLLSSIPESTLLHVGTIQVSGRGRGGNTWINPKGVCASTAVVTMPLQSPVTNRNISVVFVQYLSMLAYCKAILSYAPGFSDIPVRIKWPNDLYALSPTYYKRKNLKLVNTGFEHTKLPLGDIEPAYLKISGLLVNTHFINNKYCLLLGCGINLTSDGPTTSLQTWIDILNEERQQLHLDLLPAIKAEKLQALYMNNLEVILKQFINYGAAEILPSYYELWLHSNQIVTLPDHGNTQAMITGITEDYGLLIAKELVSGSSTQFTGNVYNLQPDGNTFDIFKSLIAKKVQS
Procedure: as §1
Ten ul of either buffer alone or buffer containing inhibitor was added to the reaction mix and pre-equilibrated at 37° C. for 5 minutes. […] The quantitative analysis of biotinylated protein formed in the reaction and coupled onto the well surface was determined using time resolved fluorescence. […] Fifty ul of DELFIA Enhancement solution (Perkin Elmer) was added and incubated for ten minutes at room temperature before quantitation. Quantitation was performed using a FLUOstar Galaxy plate reader (BMG Labtechnologies).
as §2

[3] = test system: Hep3B2-1-17 cells; test: Toxicity to mammalian liver cells, Alamar Blue (CellTiter Blue) test; format: cell-based; conditions: 40 μM to 0.15625 μM, 72 hours

C=CCC(Cc1cc(OC)cc(OC)c1)(C(=O)O)C(=O)O [Compound 4, 2-allyl-2-(3,5-dimethoxybenzyl)malonic acid]
Inhibition of human BPL (in words) [1]: not inhibited | Inhibition of S. cerevisiae BPL (in words) [2]: not inhibited | Toxicity to Hep3B2-1-17 cells [3]: well tolerated
